Reference: PubChem BioAssay AID602313 (National Center for Advancing Translational Sciences (NCATS), 2012)
The whole screen tested about 390,000 compounds, of which about 760 (0.19%) were called active. The shares of active, inactive and inconclusive entries below differ from those in the screen. Calls follow the shape of the dose curve; as a rule, active = well fitted inhibition curve with a large enough effect; inconclusive = small, poorly fitted or top-dose-only effect; inactive = flat fitted curve, though single readings scatter. A potency beside an inconclusive call is a rough fit, not a confirmed value.

Assay: qHTS for Inhibitors of Vif-A3F Interactions: qHTS; also: nearly all actives have a fitted effect of over 65% in size; as to activity, negative = active: % of control where 0% means no effect
Conditions: HeLa A3F-eYFP + Vif (tagged APOBEC3F with the HIV-1 protein that degrades it), YFP fluorescence increase; series mostly up to 46.1 µM; activity, negative = active: at the top concentration
Procedure, shortened: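 HeLa cells stably expressing Vif plus C-terminally eYFP-tagged A3F were seeded, incubated overnight at 37 deg C, dosed with compound, incubated overnight again at 37 deg C. Yellow fluorescence (Ex 488/Em 500-530) reported blocked Vif-mediated A3F-eYFP degradation.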
Potency is read from the fitted curve at half-maximal effect.

SMILES	Potency	activity, negative = active
c1ccc(-n2nnnc2-c2cccc3ccccc23)cc1	inconclusive: 2.24 µM [inhibitor, partial curve, poor fit]	
COc1cc([C@@H]2c3cc4c(cc3[C@@H](O)[C@H]3COC(=O)[C@H]23)OCO4)cc(OC)c1O[Si](C)(C)C(C)(C)C		inactive: 1.25%
Fc1ccc(C2=NNC(=NCc3ccccc3)SC2)cc1F	inconclusive: 22.4 µM [inhibitor, single point]	
COc1cc(OC)c2c(c1)O/C(=C\c1ccccc1)C2=O		inactive: 1.83%
O=C(OCc1nnc(-c2ccccc2)o1)c1cccc(S(=O)(=O)N2CCOCC2)c1	inconclusive: 6.31 µM [inhibitor, single point]	
NS(=O)(=O)c1ccc(NC(=O)CSc2ncnc3ccccc23)cc1	inconclusive: 17.8 µM [inhibitor, single point]	
Cc1cc(O)c(C(=O)/C=C/c2ccccc2Br)c(=O)o1	inconclusive: 35.5 µM [inhibitor, partial curve, poor fit]	
CCOc1ccc(Nc2cc(C)nc3ccc(C)cc23)cc1	inconclusive: 35.5 µM [inhibitor, partial curve, poor fit]	
COc1ccc(NC(=S)Nc2ccc(C)c(Cl)c2)cc1OC	inconclusive: 35.5 µM [inhibitor, single point]	
Cc1ccccc1C(=O)Nc1nc(=S)ss1		inactive: 0.918%
CC(=O)c1sc(NC(=O)COc2ccc(C(C)C)c(C)c2)nc1C	inconclusive: 3.55 µM [inhibitor, single point]	
Cc1cc(Sc2ccc([N+](=O)[O-])cn2)ccc1Br		inactive: 15%
O=C(CCN1CCCCO1)N1CCCC(Nc2ccc(F)c(F)c2)C1 (stereo not drawn)	inconclusive: 35.5 µM [inhibitor, single point]	
COc1ccccc1N1C(=O)C2C(C(=O)c3ccccc3)=NN(c3ccc(C)cc3)C2C1=O (stereo not drawn)	inconclusive: 17.8 µM [inhibitor, single point]	
CCCCCCn1nc(C(=O)N(CCCC)c2c(N)n(CCC)c(=O)[nH]c2=O)c2ccccc2c1=O	inconclusive: 35.5 µM [inhibitor, single point]	
COc1ccc(Cn2c(C)nc3c(c2=O)c2nc4ccccc4nc2n3Cc2ccco2)cc1	inconclusive: 10 µM [inhibitor, partial curve]	
O=C(NCc1ccccc1)c1cnc2n(c1=O)CCS2	inconclusive: 6.31 µM [inhibitor, single point]	
O=C(Nc1ccc(N2CCCC2)cc1)c1ccc(Cl)cc1Cl	inconclusive: 25.1 µM [inhibitor, single point]	
Cn1c(-c2ccc(C#N)cc2)c(C#Cc2ccccc2)c2ccccc21		inactive: -8.83%
CC(C)N=c1scc(-c2ccco2)n1/N=C/c1ccc(O)c(O)c1	inconclusive: 5.62 µM [inhibitor, single point]	
COc1ccc(CC(=O)NNC2=Nc3cccc4cccc2c34)cc1OC	inconclusive: 20 µM [inhibitor, partial curve, poor fit]	
Cc1ccc(C2c3c(-c4ccccc4O)n[nH]c3C(=O)N2Cc2ccncc2)cc1 (stereo not drawn)		inactive: -19.5%
CC1=NN2C(=N)/C(=C\c3cc(C)n(-c4ccc(C)cc4)c3C)C(=O)N=C2S1	inconclusive: 22.4 µM [inhibitor, single point]	

SMILES	Potency	activity, negative = active
O=C(CCl)Nc1ccc(N=Nc2ccccc2)cc1	inconclusive: 3.55 µM [inhibitor, single point]	
O=C(O)CCC(=O)N1CCC(n2nnc3cc(C(F)(F)F)ccc32)CC1	inconclusive: 28.2 µM [inhibitor, single point]	
COC(=O)c1ccc(CNCC(=O)Nc2ccc(C(=O)OC)cc2)cc1		inactive: -1.9%
O=c1[nH]c2ccccc2n2c(C(F)(F)F)nnc12	active: 10 µM	
COc1ccc(C2C(C(C)=O)=C(C)Nc3ncnn32)c(OC)c1OC (stereo not drawn)	inconclusive: 35.5 µM [inhibitor, single point]	
Oc1c(Cl)cc(Cl)cc1/C=N/Nc1ncc(Br)cn1	inconclusive: 0.562 µM [inhibitor, full curve, poor fit]	
CCOC(=O)C1CCN(C(=O)c2ccc3c(SCC(=O)O)c4c(nc3c2)CCCC4)CC1	inconclusive: 6.31 µM [inhibitor, single point]	
CC(CNC(=O)c1ccc(Nc2nc3ccccc3n3nnnc23)cc1)c1ccccc1 (stereo not drawn)		inactive: -12.9%
CC(C)C(=O)NC(c1cccs1)c1cc([N+](=O)[O-])c2cccnc2c1O (stereo not drawn)	inconclusive: 22.4 µM [inhibitor, single point]	
O=C(CSc1nncn1-c1cccnc1)Nc1ccccc1[N+](=O)[O-]	inconclusive: 5.01 µM [inhibitor, single point]	
O=C(NCCCN1CCCCC1)c1ccc2c(c1)sc1nc(-c3ccc(F)cc3)cn12	inconclusive: 35.5 µM [inhibitor, single point]	
CC(C)N1CC=C2C(C#N)=C(N)C(C#N)(C#N)C(c3ccccc3)C2C1 (stereo not drawn)	inconclusive: 17.8 µM [inhibitor, single point]	
N#C/C(=C\c1ccc(Cl)cc1)c1nc2ncccc2[nH]1		inactive: -1.22%
COc1ccc2c(Sc3ccccc3)c(C(=O)N3CCC(C)CC3)[nH]c2c1	inconclusive: 20 µM [inhibitor, single point]	
O=C(C1CCN(S(=O)(=O)N2CCC3(CC2)OCCO3)CC1)N1CCC(Cc2ccccc2)CC1		inactive: -2.43%
Nc1c(C(=O)NCc2ccccc2)sc2nc(N3CCOCC3)c3c(c12)CCCC3		inactive: -0.0183%
O=C(CC1N=C2c3ccccc3N=C(SCc3ccccc3Cl)N2C1=O)NCc1cccs1 (stereo not drawn)	inconclusive: 35.5 µM [inhibitor, single point]	
COc1ccc(-n2c(-c3ccccc3)cc3c2CCCC3=O)cc1	inconclusive: 3.55 µM [inhibitor, full curve, poor fit]	
COc1ccc2nc(SCC(=O)N3CC(=O)Nc4ccccc43)c(C#N)cc2c1	active: 22.4 µM	
COc1cccc(/C=N/N=C(\N)c2nonc2N)c1O	inconclusive: 0.562 µM [inhibitor, full curve, poor fit]	
COc1ccc(-c2nnc(Nc3nc4c(OC)cccc4s3)o2)cc1	inconclusive: 22.4 µM [inhibitor, single point]	
Cn1c(-c2ccc(S(=O)(=O)N3CCCC3)cc2)csc1=Nc1ccc(Cl)c(Cl)c1		inactive: 0.356%
CN(C)CCCn1c(N)c(C#N)c2nc3ccccc3nc21	inconclusive: 35.5 µM [inhibitor, single point]	

SMILES	Potency	activity, negative = active
CCCc1nnc(NC(=O)Cc2coc3ccc(C)cc23)s1		inactive: 0.604%
Cc1cc(C)cc(N(CC(=O)NC2CCCCC2)C(=O)c2ccc(C)s2)c1		inactive: -1.69%
NC(=O)c1sc2nc(-c3ccco3)ccc2c1N	inconclusive: 12.6 µM [inhibitor, partial curve, poor fit]	
CC(NCC(=O)Nc1ccccc1C(=O)NC1CC1)c1ccco1 (stereo not drawn)	inconclusive: 6.31 µM [inhibitor, single point]	
Cc1nnc(NC(=O)CSc2nnc(CC(=O)Nc3ccccc3F)n2C)s1	inconclusive: 15.8 µM [inhibitor, single point]	
COc1ccc(-c2c3c(nc4sc(C(=O)Nc5cc(C)on5)c(N)c24)CCC3)cc1		inactive: -6.67%
COc1cc(NC(=O)c2nn(-c3ccc(F)cc3)c(=O)n(C)c2=O)cc(OC)c1OC		inactive: 0.203%
O=C(c1ccc(F)cc1)N1CCC(C(=O)N2CCN(S(=O)(=O)c3ccccc3Br)CC2)CC1	inconclusive: 31.6 µM [inhibitor, single point]	
CCCCNc1c(-c2ccc(SC(C)CC)cc2)nc2cnccn12 (stereo not drawn)	active: 10 µM	
COc1ccccc1NC(=O)c1ccc(NC(=O)Cc2n[nH]c(=O)c3ccccc23)cc1	inconclusive: 25.1 µM [inhibitor, single point]	
C/C(=N\NC(=S)NC(C)C)c1ccco1	inconclusive: 14.1 µM [inhibitor, single point]	
CCOC(=O)c1c(CC(C)C)csc1/N=C/C1C(=O)CCCC1=O	active: 22.4 µM	
Cc1cccc(C(=O)OCC(=O)N(CC(C)C)c2c(N)n(Cc3ccccc3)c(=O)[nH]c2=O)c1C	inconclusive: 31.6 µM [inhibitor, single point]	
COc1cc(NC(=S)NC(C)(C)C)c(OC)cc1Cl	inconclusive: 25.1 µM [inhibitor, single point]	
CSc1nc(-c2ccc(Cl)cc2)c(C#N)c(=O)n1C	inconclusive: 2.82 µM [inhibitor, partial curve, poor fit]	
CCOc1ccc(NC(=O)Cn2c(=O)n(Cc3ccc(C(=O)NCc4ccc(C)cc4)cc3)c(=O)c3ccccc32)cc1	active: 10 µM	
O=c1[nH]c2ccccc2nc1/C=C(\O)C(F)F	inconclusive: 22.4 µM [inhibitor, partial curve, poor fit]	
O=C(NCCCN1CCCC1)c1ccc2c(Cl)c3c(nc2c1)CCCC3		inactive: -8.22%
N#C/C(=C\c1ccncc1)c1nc2ccccc2[nH]1	inconclusive: 28.2 µM [inhibitor, single point]	
COc1ccccc1NS(=O)(=O)c1cc([N+](=O)[O-])ccc1N/N=C/c1c[nH]c2ccccc12	active: 11.2 µM	
COc1ccc(NS(=O)(=O)c2cc([N+](=O)[O-])ccc2N/N=C/c2c(C)[nH]c3ccccc23)cc1	inconclusive: 3.16 µM [inhibitor, full curve, poor fit]	
CC(C)(CN1CCN(C(c2ccccc2)c2ccccc2)CC1)NS(=O)(=O)c1ccccc1	inconclusive: 6.31 µM [inhibitor, single point]	

Single records (already shown).
Cc1ccccc1C(=O)Nc1nc(=S)ss1 reads activity, negative = active: inactive: 0.918%
COc1ccccc1NS(=O)(=O)c1cc([N+](=O)[O-])ccc1N/N=C/c1c[nH]c2ccccc12 reads Potency: active: 11.2 µM
N#C/C(=C\c1ccncc1)c1nc2ccccc2[nH]1 reads Potency: inconclusive: 28.2 µM [inhibitor, single point]
COc1ccc(-c2c3c(nc4sc(C(=O)Nc5cc(C)on5)c(N)c24)CCC3)cc1 reads activity, negative = active: inactive: -6.67%
